# From patent US6884577B2, “Methods for screening compounds for estrogenic activity” (The Regents of the University of California, priority 1993, dated 2005)
# Key:
# [1] = test system: ER activation of AP-1 (Coll73-LUC); assay: Inhibitor screen: ER transiently transfected with Coll73-LUC in HeLa or HepG2 cells, hormone plus prospective inhibitor; type: cell-based
# Procedure: (§1) An estrogen receptor (ER) was transiently transfected into either HeLa or HepG2 cells along with an AP-1 responsive reporter gene, Coll73-LUC. The transformed cells were then contacted with antiestrogens or estrogen in combination with prospective inhibitor drugs. In addition, a shortened constitutive version of the ER (HE15) that activates AP-1 activity in a cell specific manner which parallels the hormone dependent activity of native ER was also used. Luciferase was measured in cell extracts as an indication of AP-1 dependent promoter activity.
# [2] = test system: HE15 activation of AP-1 activity; assay: Inhibitor screen: HE15 (constitutive ER) activation of AP-1 activity; type: cell-based; conditions: HeLa cells
# Procedure: as §1
smiles,measurement,setting,value
CN[C@@H]1C[C@H]2O[C@@](C)([C@@H]1OC)n1c3ccccc3c3c4c(c5c6ccccc6n2c5c31)C(=O)NC4 [staurosporine],inhibition of hormone action at AP-1 sites,"[1]; HeLa or HepG2 cells, Coll73-LUC",inhibit hormone action at AP-1 sites
same,inhibition of ER activation of the collagenase promoter,"[1]; HepG2 cells, native ER with hormone",inhibited
same,inhibition of the activation of AP-1 activity by HE15,[2],inhibit
